Test results from PubChem BioAssay AID504444 (National Center for Advancing Translational Sciences (NCATS), 2011).
Screen size: about 360,000 compounds; about 7,500 (2.1%) were called active. The inconclusive results got no clear call from the source; some entries with a clear call stand among them for comparison. Calls follow the shape of the dose curve; as a rule, active = well fitted inhibition curve with a large enough effect; inconclusive = small, poorly fitted or top-dose-only effect, or effect the other way; inactive = flat fitted curve, though single readings scatter. A potency beside an inconclusive call is a rough fit, not a confirmed value.

Assay: Nrf2 qHTS screen for inhibitors; also: nearly all actives have a fitted effect of over 60% in size
Conditions: A549 ARE-Fluc reporter, luciferase luminescence, 18-24 h; series mostly up to 46 µM
Outline: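 Concentration-response testing used A549 ARE_Fluc cells at 5000 cells/well. Following an 18-24 h compound incubation, viability was read by fluorescence (Ex 405/Em 525) and luciferase output by luminescence.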
Potency is read from the fitted curve at half-maximal effect.

Compound | Potency
CN(C)S(=O)(=O)c1ccc(N2CCCC2)c(C(=O)NCC2COc3ccccc3O2)c1 (configuration not stated) | inconclusive: 0.651 µM [activator, full curve, poor fit]
N#Cc1ccc(C(=O)Nc2cccc(S(=O)(=O)NC3=NCCC3)c2)cc1 | inconclusive: 23.1 µM [falling, partial curve, poor fit]
CCn1cc(/C=C/c2cc[n+](C)cc2)c2ccccc21 | active: 1.84 µM
CN(C(=O)c1cccc(NC(=O)Cc2ccc(NC(=O)C3CCCN(C(=O)CCc4ccccc4)C3)cc2)c1)C1CCCCC1 (configuration not stated) | active: 10.3 µM
COc1ccc(Cc2nnc(NC(=O)c3cc(OC)c(OC)c(OC)c3)s2)cc1OC | inconclusive: 0.259 µM [falling, full curve, poor fit]
Cn1c(=O)c2c(nc(SCC(=O)NCC3CCCO3)n2C)n(C)c1=O (configuration not stated) | inconclusive: 1.64 µM [falling, partial curve, poor fit]
Cc1cc(C)cc(N(C)S(=O)(=O)c2nnc(NC(=O)COc3ccc(Cl)cc3)s2)c1 | inconclusive: 18.4 µM [falling, partial curve, poor fit]
Cc1ccccc1N1CCN(CC(=O)Nc2ccccc2C(=O)NC2CC2)CC1 | inconclusive: 16.4 µM [falling, partial curve, poor fit]
CSc1cccc(NC(=O)C2CCN(S(=O)(=O)c3ccc(F)cc3)CC2)c1 | active: 14.6 µM
COc1ccc(S(=O)(=O)N2CCCCCC2)cc1N(C)S(=O)(=O)c1ccccc1 | active: 23.1 µM
Cc1oc(-c2cccs2)nc1CS(=O)CC(=O)NCCc1ccccc1 (configuration not stated) | inactive
O=C(NCc1cccnc1)c1ccc(COc2ccc(Cl)cc2Cl)o1 | inconclusive: 18.4 µM [falling, partial curve, poor fit]
CC(C)(C)S(=O)N1Cc2cc(CO)ccc2[C@@H]1CCO (some centres not stated) | inconclusive: 25.9 µM [activator, single point]
Cc1cccc(Cn2c(-c3cccs3)nc3ccccc32)c1 | inactive
COC(=O)c1cccc(NC(=S)N2CCN(C)CC2)c1 | inactive
CCOC(=O)Cc1csc(NC(=O)/C=C\c2ccccc2Cl)n1 | active: 25.9 µM
N#Cc1ccc(OCC(=O)NNC(=S)NC2CCCCC2)cc1 | inactive
Cc1cccn2c(=O)c3cc(C#N)c(=O)n(Cc4cccnc4)c3nc12 | inconclusive: 0.92 µM [falling, partial curve, poor fit]
NC(=O)Cn1c(=O)n(-c2ccc(F)c(Cl)c2)c(=O)c2sc3ccccc3c21 | inactive
Cc1cc(N=Cc2c(O)n(-c3ccc4c(c3)OCO4)c(=O)c3ccccc23)ccn1 | inconclusive: 25.9 µM [falling, single point]
CCN(CC)CC(C)(C)C(=O)/C=C/c1ccc(/C=C/C(=O)C(C)(C)CN(CC)CC)cc1 | active: 20.6 µM
COc1ccccc1OCCC(=O)OCC(=O)c1[nH]c(C)c(C(C)=O)c1C | inconclusive: 29.1 µM [falling, single point]
COc1ccc(CCNC(=O)c2cc3c(=O)n4cccc(C)c4nc3s2)cc1OC | inconclusive: 10.3 µM [falling, partial curve]

Compound | Potency
CC(CCc1ccccc1)N1CCN(C)CC1 (configuration not stated) | inactive
Cc1cccc(CNc2ncnc3ccc(-c4ccoc4)cc23)c1 | active: 18.4 µM
Cc1ccccc1NC(=O)OCc1cccnc1Oc1ccc(Cl)cc1 | inconclusive: 10.3 µM [falling, partial curve, poor fit]
O=C(c1cc(COc2ccc(F)cc2F)on1)N1CCCC(c2ccccc2)C1 (configuration not stated) | inconclusive: 20.6 µM [falling, single point]
Cc1ccc(NS(=O)(=O)c2cc(NC(=O)C(C)Oc3ccccc3)ccc2C)c(C)c1 (configuration not stated) | inconclusive: 23.1 µM [falling, single point]
Clc1ccc(C[n+]2cc(-c3ccccc3)n3c2CCC3)cc1Cl | inconclusive: 23.1 µM [falling, partial curve, poor fit]
CCOc1ccc(/C=C2\SC(=S)NC2=O)cc1OC | inactive
Cc1ccc(S(=O)(=O)c2nnn3c2nc(N2CCCCC2)c2sccc23)cc1 | inactive
CCN(CC)S(=O)(=O)c1ccc(NC(=O)[C@H](CCSC)N2Cc3ccccc3C2=O)cc1 | inactive
CC1CN(S(=O)(=O)c2cccc(C(=O)N(C)C3CCN(C)CC3)c2)CC(C)O1 (configuration not stated) | inactive
Cc1ccc(/C=C/C(=O)Nc2ccc(N(C)C)cc2)o1 | inconclusive: 8.2 µM [activator, full curve, poor fit]
CN(C)c1ccc(NC(=O)Cc2ccccc2)c2ccccc12 | inconclusive: 29.1 µM [activator, single point]
Cc1cn2c(=O)c(S(=O)(=O)NC(C)c3ccccc3)c(C)nc2s1 (configuration not stated) | inconclusive: 13 µM [activator, partial curve, poor fit]
CCOc1ccc(/C(O)=C2\C(=O)C(=O)N(c3cc(C)on3)C2c2ccccc2OC)cc1 (configuration not stated) | inconclusive: 20.6 µM [falling, single point]
CCCS(=O)(=O)c1c(S(=O)(=O)CCC)c2ccc(C(N)=O)cn2c1C(=O)c1ccc(OC)cc1 | inconclusive: 10.3 µM [falling, partial curve, poor fit]
CCc1ccccc1NC(=O)CSc1nc2n[nH]c(C)c2c(=N)n1-c1cccc(OC)c1 | active: 18.4 µM
CCn1c(C)nc2cc(C(=O)NNS(=O)(=O)c3ccc(C)c(C)c3)ccc21 | inconclusive: 0.164 µM [falling, partial curve, poor fit]
CCn1nnc2cc(C(=O)Nc3ccc(C(=O)OC(C)C)cc3)ccc21 | inactive
CCOc1ccc(NC(=O)c2ccc3c(c2)c(C)c(C)n3Cc2ccc(F)cc2)cc1 | inactive
O=C(Nc1nc(-c2ccccn2)cs1)c1cccc(S(=O)(=O)N2CCOCC2)c1 | active: 3.26 µM
COc1ccc(CNS(=O)(=O)CCNCc2ccccc2OC)cc1 | inactive
CC[C@H](C)[C@H](NC(=O)OCc1ccccc1)C(=O)OCC(=O)N1CCN(c2ccc(OC)cc2)CC1 | inconclusive: 32.6 µM [falling, single point]
COc1ccccc1-c1cc(C(F)(F)F)nc(S(=O)(=O)CCCC(=O)NC(C)C)n1 | inconclusive: 23.1 µM [falling, single point]

Compound | Potency
CCOc1cc(C(=S)N2CCC(O)CC2)ccc1OS(=O)(=O)c1ccc(Br)cc1 | inconclusive: 23.1 µM [falling, single point]
COc1ccc(OC(C)C(=O)N(C)Cc2nc(-c3ccc(C)cc3)no2)cc1 (configuration not stated) | inconclusive: 20.6 µM [falling, single point]
Cc1ccc(N(Cc2ccccc2)C(=O)c2cc(S(=O)(=O)N3CCOCC3)ccc2Cl)cc1 | inconclusive: 29.1 µM [falling, single point]
Cc1ccc(N(C(=O)Cc2cccs2)C(C(=O)NC2CCCCC2)c2ccccn2)cc1C (configuration not stated) | inconclusive: 18.4 µM [falling, single point]
COc1ccc(-c2nc(C#N)c(N3CCC(C(N)=O)CC3)o2)cc1 | inconclusive: 20.6 µM [falling, partial curve, poor fit]
Cn1c(COc2ccccc2)nnc1SCc1nc2ccccc2[nH]1 | inconclusive: 2.91 µM [activator, partial curve, poor fit]
O=C(c1ccc(F)cc1)N1CCC2(CC1)NCCc1[nH]cnc12 | inactive
CCSc1nc(N)c2c(C)c(C)sc2n1 | inconclusive: 25.9 µM [falling, single point]
CCN(CC)S(=O)(=O)c1cccc(C(=O)Nc2ccccc2)c1 | inconclusive: 32.6 µM [falling, single point]
Cc1cn(CCOc2ccc(Cl)cc2)c(=O)[nH]c1=O | inconclusive: 1.84 µM [falling, partial curve, poor fit]
CCOc1ccc(S(=O)(=O)N2CCCCC2)cc1NC(=O)CN1C(=O)NC(C)(c2ccc(C)cc2)C1=O (configuration not stated) | inconclusive: 32.6 µM [falling, single point]
CC1Cc2cc(S(=O)(=O)CCC(=O)N3CCN(c4ccccc4)CC3)ccc2N1C(=O)C1CC1 (configuration not stated) | inconclusive: 16.4 µM [falling, partial curve, poor fit]
O=C(Nc1ccc(F)cc1)c1ccc(S(=O)(=O)NCC2CCCO2)cc1 (configuration not stated) | active: 23.1 µM
CC(=O)c1c(C(C)=O)c(C)n(Cc2ccc(Cl)cc2)c1C | inconclusive: 7.31 µM [falling, partial curve, poor fit]
Cc1ccc(Cc2nc(-c3ccncc3)no2)cc1 | inconclusive: 25.9 µM [falling, single point]
Cn1nc([N+](=O)[O-])c(C(C#N)c2ccccn2)c(Cl)c1=O (configuration not stated) | active: 11.6 µM
Cc1cccc(Cn2c(NCCO)nc3c2c(=O)n(C)c(=O)n3C)c1 | active: 4.11 µM
Cc1ccc(/C=N/NC(=O)Cc2c[nH]c3ccccc23)c(C)c1 | inconclusive: 23.1 µM [falling, partial curve, poor fit]
Cc1cc(C)cc(N(CC(=O)O)S(=O)(=O)c2c(C)[nH]c(=O)[nH]c2=O)c1 | inconclusive: 6.51 µM [falling, partial curve, poor fit]
CCCS(=O)(=O)N1CCCC(C(=O)NCCCN2CCN(c3cccc(Cl)c3)CC2)C1 (configuration not stated) | inconclusive: 29.1 µM [falling, single point]
COc1cc2c(C(=O)NCc3ccccn3)cn(CC(C)C)c(=O)c2cc1OC | inconclusive: 0.184 µM [falling, full curve, poor fit]

Looked up above.
`COc1cc2c(C(=O)NCc3ccccn3)cn(CC(C)C)c(=O)c2cc1OC` | Potency: inconclusive: 0.184 µM [falling, full curve, poor fit]
`Cn1c(COc2ccccc2)nnc1SCc1nc2ccccc2[nH]1` | Potency: inconclusive: 2.91 µM [activator, partial curve, poor fit]
`CCOc1ccc(S(=O)(=O)N2CCCCC2)cc1NC(=O)CN1C(=O)NC(C)(c2ccc(C)cc2)C1=O` (configuration not stated) | Potency: inconclusive: 32.6 µM [falling, single point]
`Cn1nc([N+](=O)[O-])c(C(C#N)c2ccccn2)c(Cl)c1=O` (configuration not stated) | Potency: active: 11.6 µM
`Cc1cc(C)cc(N(CC(=O)O)S(=O)(=O)c2c(C)[nH]c(=O)[nH]c2=O)c1` | Potency: inconclusive: 6.51 µM [falling, partial curve, poor fit]
